Literature values in patent publication US9205086B2, “Cancer therapy using a combination of a Hsp90 inhibitory compounds and a EGFR inhibitor” (Synta Pharmaceuticals Corp., priority 2010, dated 2015).
At least one structure is not confirmed: it was looked up by name or label, or the drawing left a doubt.

System: EGFRvIII
Conditions: Lavictoire, et al., J. Biological Chem. (2003); cited from earlier work

For `COC1=C2C[C@@H](C)C[C@H](OC)[C@H](O)[C@@H](C)/C=C(\C)[C@H](OC(N)=O)[C@@H](OC)/C=C\C=C(/C)C(=O)NC(=CC1=O)C2=O` [geldanamycin], the “expression of EGFRvIII” value is given as “able to decrease the expression of EGFRvIII”.
